Assay results published in patent US8637078B2, “Bilayer tablet comprising telmisartan and diuretic” (Boehringer Ingelheim International GmbH, priority 2005, dated 2014).
At least one read-out could not be matched to a standard name with certainty.

Assay: solubilization of telmisartan from the dissolving matrix composition / first tablet layer
Format: physicochemical
Conditions: from first tablet layer containing telmisartan; physiological pH level

CCCc1nc2c(C)cc(-c3nc4ccccc4n3C)cc2n1Cc1ccc(-c2ccccc2C(=O)O)cc1 [telmisartan, 4′-[2-n-propyl-4-methyl-6-(1-methylbenzimidazol-2-yl)-benzimidazol-1-ylmethyl]-biphenyl-2-carboxylic acid]
solubilization of telmisartan up to a concentration: more than 4.4 mg/100 mL
